# Results: US20250361295A1
# Biological target: cynomolgus (Macaca fascicularis) LILRB4 (cynomolgus (Macaca fascicularis))
# Experiment: FACS, CHO-S-cynoLILRB4 cells
row,Binder,binding
1,"ch8-B3-F6-H8 (antibody, V domains shown) VH: EVKVIESGGGLVQPGGSLKLSCAASGFDFSRYWMSWVRQAPGKGLEWIGEINPDSSAINYTPSLKDKFIISRDNAKNTLYLQMSKVRSEDTALYYCATSMTMDYWGQGTSVTVSS VL: DIVMTQSPSSMYASLGERVTITCKASQDIKSYLSWYQQKPWKSPKTLIYYATSLADGVPSRFSGSGSGQDYSLTISSLESDDTATYYCLQHGESPYTFGGGTKLEK",no binding (tested: up to 66.67 nM)
2,"ch27-G5-E9-B8 (antibody, V domains shown) VH: EVQLVESGGGLVQPGGSRKLSCAASGFTFSSFGMHWVRQAPEKGLEWVAYISSGSSTIYYADTVKGRFTISRDNPKNTLFLQMTSLRSEDTAMYYCARSTGTGAMDYWGQGTSVTVSS VL: DIQMTQTTSSLSASLGDSVTFSCRASQDISNYLNWYQQKPDGTVKLLISYTSRLHSGVPSRFSGSGSGTDYSLTISNLEQEDIATYFCQQGNALPWTFGGGTKLEIK",no binding (tested: up to 66.67 nM)
3,"ch48-E11-H7-B5 (antibody, V domains shown) VH: EVQLVESGGGLVKPGGSLKLSCAASGFTFSSYAMSWVRQTPEKRLEWVASITIGDDTYYPDSVKGRFTISRDHAKNILYLQVSSLRSEDTAMYSCARGVNSYGSSYRYFDVWGAGTTVTVSS VL: DIVMTQSHKFMSTSVGDRVSITCKASQDVSTAVAWYQQKPGQSPKLLIYWASTRHTGVPDRFTGSGSGTDYTLTISSVQAEDLALYYCQQHYSIPFTFGAGTKLEK",no binding (tested: up to 66.67 nM)
4,"ch42-C8-A12-F3-D11 (antibody, V domains shown) VH: EVHLVESGGDLVKPGGSLKLSCAASGFTFSSHGMSWVRQTPDKRLEWVATISSGGIYTYHPDSVKGRFSISRDNAKKTLYLQMSSLKSEDTGIYYCTRGQVGNWYFDVWGAGTTVTVSS VL: DIVITQSPAIMSASPGEKVTINCSASSSVSYMHWFQQTPGTSPKLWIYSTSNLASGVPARFSGSGSGTFYSLTISRMEAEDAATYYCQQRSSYPLTFGAGTKLELK",no binding (tested: up to 66.67 nM)
5,"ch10-H9-E3-G3 (antibody, V domains shown) VH: EVQRVESGGGLVQPGGSRKLSCAASGFTFSSFGMHWVRQAPEKGLEWVAYISSGSSAMYYADTVKGRFTISRDNPKNTLFLQMTSLRSEDTAMYYCARSDGKGAMDYWGQGTSVTVSS VL: DIQMTQTTSSLSASLGDRVTISCRASQDISNYLNWYQQKPDGTVKLLVYYTSRLHSGVPSRFSGSGSGTDYSLTISNLEQEDIATYFCQQGNTLPWTFGGGTKLEIK",no binding (tested: up to 66.67 nM)
6,"ch7-B4-C1-C9 (antibody, V domains shown) VH: EVQLQQSGTELVKPGASVKLSCKASGYTFTNYWMHWVKQRPGQGLEWIGEINPSNGRTNYNEKFKTKATLTVDKSSSTAYMQLSSLTSEDSAVYYCARSTYYGYDWYFDVWGAGTTVTVSS VL: DIVLTQSPSSMYASLGERVTITCKASQDINSYLSWFQQKPGKSPKTLIYRANRLLDGVPSRFSGGGSGQDYSLTISSLEHEDMGIYYCLQCDEFPHTFGGGTKLEIK",no binding (tested: up to 66.67 nM)
7,"ch25-E7-A10-H6 (antibody, V domains shown) VH: EVQLVESGGGLVQPGGSRKLSCAASGFTFSTFGMHWVRQAPEKGLEWVAYISSGSSTIYYADTVKGRFTISRDNPKNTLFLQMTSLRSEDTAMYYCARSTGTGAMDYWGQGTSVTVSS VL: DIQMTQTTSSLSASLGDRVTISCRASQDISKYLNWYQQKPDGTVKLLIYYTSRLHSGVPSRFSGSGSGTDYSLTISNLEQEDIATYFCQQGNTLPWTFGGGTKLEIK",no binding (tested: up to 66.67 nM)
8,"ch25-G9-G4-C12 (antibody, V domains shown) VH: EVQLVESGGDLVKPGGSLKLSCAASGFTFSSHGMSWVRQTPDKRLEWVATINSGGYYTYYPDSVKGRFTISRDNAKNTLYLQMSSLKSEDTAMYYCARGQLGNWYFDVWGAGTTVTVSS VL: DIVMTQSPAIMSASPGEKVTITCSASSSVSYMHWFQQKPGTSPKLWIYSTSNLASGVPARFSGSGSGTSYSLTISRMEAEDAATYYCQQRSSYPLTFGAGTKLELK",no binding (tested: up to 66.67 nM)
9,"ch2-H1-D7-E5-D5 (antibody, V domains shown) VH: EVHLVESGGGLVQPGGSRKLSCAASGFTFSSFGMHWVRQPPEKGLEWVAYISSGSSSIYYADTVKGRFTISRDNPKNTLFLQMTSLRSEDTAMYYCARGTGTGAMDYWGQGTSVTVSS VL: DIQMTQTTSSLSASLGDRVTISCRTSQDISNYLNWYQQKPDGTVKLLIYYTSKLHSGVPSRFSGSGSGTDYSLTISNLDQEDIATYFCQQGNTLPWTFGGGTKLEIK",no binding (tested: up to 66.67 nM)
10,"27-F11-E10-G10 (antibody, V domains shown) VH: EVQLVESGGGLVQPGGSRKLSCAASGFTFSSFGMHWVRQAPEKGLEWVAYISSGSSTIYYADTVKGRFSISRDNPKNTLFLQMTSLRSEDTAMFYCARSTGTGAMDYWGQGTSVTVSS VL: DIQMTQTTSSLSASLGDRVTISCRASQDISNYLNWYQQKPDGTVKLLIYYTSRLHSGVPSRFSGSGSGTDYSLTISNLEQEDIATYFCQQGNTLPWTFGGGTKLELK",no binding
11,"ch27-D11-C2-A10 (antibody, V domains shown) VH: EVQLVESGGGLVQPGGSRKLSCAASGFTFSVFGVHWVRQAPEKGLEWVAYISSGSNTIHYADTVKGRFTISRDIPKNTLFLQMTSLRSEDTAMYYCARSSGTGAMDYWGQGTSVTVSS VL: DIQMTQSTSSLSASLGDRVSISCRASQDISNYLNWYQQKPDGAVKLLIYYTSRLHSGVPSRFSGSGSGTDYSLTISNLDQEDIATYFCQQGNTLPWTFGGGTKLELK",no binding (tested: up to 66.67 nM)
12,"ch26-H9-B9-B7 (antibody, V domains shown) VH: EVQRVESGGGLVQPGGSRKLSCAASGFTFSSFGMHWVRQAPEKGLEWVAYISSGSSTIYYADTVKGRFTISRDNPKNTLFLQMTSLRSEDTAMYYCARSDGKGAMDYWGQGTSVTVSS VL: DIVMTQSTSSLSASLGDRVTISCRASQDISNYLNWYQQKPDGTVKLLIYYTSRLHSGVPSRFSGSGSGTDYSLTISNLEQEDIATYFCQQGNTLPWTFGGGTKLEIK",no binding (tested: up to 66.67 nM)
13,"ch4-E6-E4-B12 (antibody, V domains shown) VH: EVQLKESGAELVKPGASVKLSCKASGYTFTSHWMHWVKQRPGQGLEWIGEINPSNGRTNYNEKFTSKATLTVDQSSSTAYMQLSSLTSEDSAVYYCARGNLTTVVPFDYWGQGTALTVSS VL: DIVMTQSPSSLSASLGGKVTITCKASQDINKFIAWYQHKPGKGPRLLIHFTSTLQPGIPSRFSGSGSGRDYSFSISNLEPEDIATYFCLQYDLLLTFGGGTKLEIK",no binding (tested: up to 66.67 nM)
14,"ch2-H8-C9-F7-E2 (antibody, V domains shown) VH: EVQLQQSGAELVKPGASVKLSCKASGYTFTNYWMHWVKQRPGQGLEWIGEINPSNGRTNYNEKFKSKATLTVDKSSSTAYMQLSSLTSEDSAVYYCARGSLTTVVPFDYWGQGTTLTVSS VL: DIQMTQTPSSLSASLGGKVTITCKASQDINNYIAWYQHKPGKGPRLLIHYTSTLQPGIPSRFSGSGSGRDYSFSISNLEPEDIATYFCLQYDILLTFGGGTKLEK",no binding (tested: up to 66.67 nM)
15,"27-G5-E9-B8 (antibody, V domains shown) VH: EVQLVESGGGLVQPGGSRKLSCAASGFTFSSFGMHWVRQAPEKGLEWVAYISSGSSTIYYADTVKGRFTISRDNPKNTLFLQMTSLRSEDTAMYYCARSTGTGAMDYWGQGTSVTVSS VL: DIQMTQTTSSLSASLGDSVTFSCRASQDISNYLNWYQQKPDGTVKLLISYTSRLHSGVPSRFSGSGSGTDYSLTISNLEQEDIATYFCQQGNALPWTFGGGTKLEIK",no binding
16,"4-E6-E4-B12 (antibody, V domains shown) VH: EVQLKESGAELVKPGASVKLSCKASGYTFTSHWMHWVKQRPGQGLEWIGEINPSNGRTNYNEKFTSKATLTVDQSSSTAYMQLSSLTSEDSAVYYCARGNLTTVVPFDYWGQGTALTVSS VL: DIVMTQSPSSLSASLGGKVTITCKASQDINKFIAWYQHKPGKGPRLLIHFTSTLQPGIPSRFSGSGSGRDYSFSISNLEPEDIATYFCLQYDLLLTFGGGTKLEIK",no binding

# No constants are given. Whether binding was seen depends on the method and setting.
